The record followed here is paper PMC7994381.

Chains of the proteins cited; added tags and fusions are not shown.
UniProt P04198: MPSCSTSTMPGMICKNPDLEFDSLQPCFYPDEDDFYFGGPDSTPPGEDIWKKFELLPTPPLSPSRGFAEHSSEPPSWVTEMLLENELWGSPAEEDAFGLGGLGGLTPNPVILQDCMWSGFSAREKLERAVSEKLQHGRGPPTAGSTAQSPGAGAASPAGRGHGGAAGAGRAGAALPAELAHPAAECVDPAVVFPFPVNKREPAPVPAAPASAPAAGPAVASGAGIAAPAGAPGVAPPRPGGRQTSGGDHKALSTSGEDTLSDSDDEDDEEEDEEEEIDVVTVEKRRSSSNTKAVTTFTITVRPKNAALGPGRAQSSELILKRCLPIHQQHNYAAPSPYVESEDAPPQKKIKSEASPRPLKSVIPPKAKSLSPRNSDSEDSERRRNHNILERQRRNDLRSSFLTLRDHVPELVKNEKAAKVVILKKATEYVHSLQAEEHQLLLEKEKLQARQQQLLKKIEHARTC

Residue numbers refer to the chain shown, from its start. Names may count otherwise. No constants are given. Whether binding was seen depends on the method and setting. Binding seen in cells or lysates may run through a third protein. Some binding calls cover weakened binding; strength is not graded here. For part of these data: Tags and fused reporters may be left off the sequences shown.

In assay [1] the target is HA-tagged full-length MYCN (amino acids 1–464) (human) (UniProt P04198). The assay can be described thus: co-IP; HEK293T co-transfected with HA-MYCN and Flag-USP3^wt or Flag-USP3^C168S for 24 h; BC100 lysis buffer; HA-MYCN precipitated with HA antibody; blot for Flag-USP3.
For assay [2], the target named is endogenous MYCN (human (endogenous in Kelly and SK-N-BE(2)C)) (UniProt P04198). The assay can be described thus: co-IP; endogenous proteins, total cellular protein extracts of Kelly and SK-N-BE(2)C; BC100 buffer; precipitated with MYCN-specific antibody or control IgG; blot for USP3.

B1: Flag-USP3^wt (enzyme, UniProt Q9Y6I4 1-520)
chain: MECPHLSSSVCIAPDSAKFPNGSPSSWCCSVCRSNKSPWVCLTCSSVHCGRYVNGHAKKHYEDAQVPLTNHKKSEKQDKVQHTVCMDCSSYSTYCYRCDDFVVNDTKLGLVQKVREHLQNLENSAFTADRHKKRKLLENSTLNSKLLKVNGSTTAICATGLRNLGNTCFMNAILQSLSNIEQFCCYFKELPAVELRNGKTAGRRTYHTRSQGDNNVSLVEEFRKTLCALWQGSQTAFSPESLFYVVWKIMPNFRGYQQQDAHEFMRYLLDHLHLELQGGFNGVSRSAILQENSTLSASNKCCINGASTVVTAIFGGILQNEVNCLICGTESRKFDPFLDLSLDIPSQFRSKRSKNQENGPVCSLRDCLRSFTDLEELDETELYMCHKCKKKQKSTKKFWIQKLPKVLCLHLKRFHWTAYLRNKVDTYVEFPLRGLDMKCYLLEPENSGPESCLYDLAAVVVHHGSGVGSGHYTAYATHEGRWFHFNDSTVTLTDEETVVKAKAYILFYVEHQAKAGSDKL
Take B1: the binding entry in assay [1] is recorded as “binds”.

B2: Flag-USP3^C168S (enzyme, UniProt Q9Y6I4 1-520)
chain: B1 chain with C168S
On to B2, for which the binding entry in assay [1] is on record as “binds”.

B3: endogenous USP3 (enzyme, UniProt Q9Y6I4 1-520)
chain: B1 chain
Take B3: the binding entry in assay [2] was “binds”.
